For test [1], the target named is MxDnaK2-nLuc (MxDnaK2 fused to LgBiT or SmBiT) (Myxococcus xanthus DK1622) (UniProt P95334). Kind of test: split reporter; split NanoBit luciferase oligomerization assay: MxDnaK-SmBiT (pET28A) and MxDnaK-LgBiT (pACYC Duet-1) co-expressed in E. coli BL21(DE3); empty vectors as negative control.
Test [2] has as its target His6-MxDnaK2 (Myxococcus xanthus DK1622) (UniProt P95334). Kind of test: SDS-PAGE of the purified protein (monomer and dimer bands); purified MxDnaK2 treated with 100 mM DTT; band compositions confirmed by LC-MS; both purified.

These are yes or no findings as the source states them, for the method shown. For some assays here: In cells and extracts the contact can be indirect. Some results given as binding are weak or reduced against the parent protein; the word gives no strength.

On to “MxDnaK2-nLuc (MxDnaK2 fused to LgBiT or SmBiT) (from UniProt P95334 1-607)”, for which the binding result in test [1] was “binds”.

B1: His6-MxDnaK2 (natural protein, Myxococcus xanthus DK1622, UniProt P95334 1-607, looked up)
chain: MGKVIGIDLGTTNSCVAVMEGGEPVVIPNSEGSRTTPSMVGFTDSGERLVGQIAKRQAITNPENTVFAAKRLIGRKFDSPEGKKAIGVSPFKVASSPNGDAWVEIRGKGYSPPEVSAIVLMKMKQTAEDYLGEQVSEAVITVPAYFNDSQRQATKDAGRIAGLSVLRIINEPTAAALAYGLDKVQDGGTERIAVYDLGGGTFDISILELNAGVFEVKSTNGDTFLGGEDFDQRLIDYLAKRFAESNNGLDLRKDRMALQRLKEAAERAKHELSSAPETEVNLPFITADASGPKHLTETVDRATFEALVTDLIDRTIEPCRIALKDAGIPAQQINQVLLVGGMTRMPRVQQKVKEFFGREPHKGINPDEVVAVGAAIQGGVLKGEVKDVLLLDVTPLSLGVETAGGVFTKIIDKNTTIPCKKSQVFSTAVDNQPLVSVHVLQGEREMAADNKTLARFELVGIPPAPRGVPQIEVSFDIDANGIVHVSAKDLGTGKVQQVRVVSNSGLSEAEIQAMISDAQSHASDDKKKKELAELRNNADGLIYTTEKSLEEYASLLSEKDREEIKADLERLKEVLNTSDAAVLKESFQRLEGSAYRIADAIYTGQAS
notes: MxDnaK2 (MXAN_6671) of Myxococcus xanthus DK1622; the gene was amplified from genomic DNA and cloned into pET28a; His6-MxDnaK2 printed as 65.3 kDa; also called MxDnaK2, recombinant purified; source: E. coli BL21 (DE3), purified (Ni-NTA); not shown: His6, N-terminal, kept
For B1, the binding result in test [2] is reported as “no binding (condition: with 100 mM DTT)”.

Source of the values: paper PMC11019930, “DnaK duplication and specialization in bacteria correlates with increased proteome complexity” (mSystems, 2024).
